Measured values taken from the supplement of paper PMC12819154, “High-throughput peptide-centric local stability assay extends protein–ligand identification to membrane proteins, tissues and bacteria” (Nature Structural & Molecular Biology, 2025).
Some of the results follow. Most values lie at the level of the controls, where differences are scatter.

The chains behind the UniProt entries cited, without tags or fusion partners. Where a name states a change or a piece, a line headed by the entry shows the natural chain unless it says otherwise.
UniProt P16627, whole entry: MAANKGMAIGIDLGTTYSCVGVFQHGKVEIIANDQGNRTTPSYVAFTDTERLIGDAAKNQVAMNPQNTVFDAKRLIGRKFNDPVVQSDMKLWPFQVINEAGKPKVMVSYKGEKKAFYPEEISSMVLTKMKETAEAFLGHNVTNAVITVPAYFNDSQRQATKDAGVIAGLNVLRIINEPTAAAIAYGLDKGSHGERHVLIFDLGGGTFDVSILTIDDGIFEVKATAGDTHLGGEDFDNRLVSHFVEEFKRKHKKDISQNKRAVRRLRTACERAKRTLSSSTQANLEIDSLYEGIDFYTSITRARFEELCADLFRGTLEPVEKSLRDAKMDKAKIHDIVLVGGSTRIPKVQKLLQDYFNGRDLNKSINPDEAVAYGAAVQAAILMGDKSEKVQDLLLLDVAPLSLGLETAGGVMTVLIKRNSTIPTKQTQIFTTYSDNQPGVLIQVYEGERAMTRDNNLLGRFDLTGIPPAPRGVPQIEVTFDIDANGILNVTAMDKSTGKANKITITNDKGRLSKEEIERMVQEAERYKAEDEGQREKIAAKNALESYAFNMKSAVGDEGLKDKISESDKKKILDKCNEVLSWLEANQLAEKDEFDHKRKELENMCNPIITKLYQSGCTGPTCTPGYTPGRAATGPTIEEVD
UniProt P28028, whole entry: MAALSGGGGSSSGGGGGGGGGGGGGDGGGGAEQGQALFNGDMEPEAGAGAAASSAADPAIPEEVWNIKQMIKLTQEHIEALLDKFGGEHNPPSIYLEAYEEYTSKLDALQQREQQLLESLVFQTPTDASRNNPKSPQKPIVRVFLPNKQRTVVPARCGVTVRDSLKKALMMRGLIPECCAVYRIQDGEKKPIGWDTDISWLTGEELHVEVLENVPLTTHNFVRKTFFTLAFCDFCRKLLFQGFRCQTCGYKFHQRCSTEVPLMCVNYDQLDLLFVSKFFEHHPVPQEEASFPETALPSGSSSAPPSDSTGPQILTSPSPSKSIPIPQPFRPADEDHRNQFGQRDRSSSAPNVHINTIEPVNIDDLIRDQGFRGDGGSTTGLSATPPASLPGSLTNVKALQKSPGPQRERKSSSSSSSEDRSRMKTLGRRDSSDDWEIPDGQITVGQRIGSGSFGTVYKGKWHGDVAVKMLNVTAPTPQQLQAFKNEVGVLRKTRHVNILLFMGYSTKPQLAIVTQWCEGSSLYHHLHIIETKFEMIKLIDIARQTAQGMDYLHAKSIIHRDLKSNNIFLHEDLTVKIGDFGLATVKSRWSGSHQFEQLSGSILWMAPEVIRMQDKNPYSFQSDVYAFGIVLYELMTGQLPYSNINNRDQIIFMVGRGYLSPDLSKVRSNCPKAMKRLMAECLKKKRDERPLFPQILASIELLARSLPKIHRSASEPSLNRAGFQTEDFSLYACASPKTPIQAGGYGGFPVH
UniProt P32507, whole entry: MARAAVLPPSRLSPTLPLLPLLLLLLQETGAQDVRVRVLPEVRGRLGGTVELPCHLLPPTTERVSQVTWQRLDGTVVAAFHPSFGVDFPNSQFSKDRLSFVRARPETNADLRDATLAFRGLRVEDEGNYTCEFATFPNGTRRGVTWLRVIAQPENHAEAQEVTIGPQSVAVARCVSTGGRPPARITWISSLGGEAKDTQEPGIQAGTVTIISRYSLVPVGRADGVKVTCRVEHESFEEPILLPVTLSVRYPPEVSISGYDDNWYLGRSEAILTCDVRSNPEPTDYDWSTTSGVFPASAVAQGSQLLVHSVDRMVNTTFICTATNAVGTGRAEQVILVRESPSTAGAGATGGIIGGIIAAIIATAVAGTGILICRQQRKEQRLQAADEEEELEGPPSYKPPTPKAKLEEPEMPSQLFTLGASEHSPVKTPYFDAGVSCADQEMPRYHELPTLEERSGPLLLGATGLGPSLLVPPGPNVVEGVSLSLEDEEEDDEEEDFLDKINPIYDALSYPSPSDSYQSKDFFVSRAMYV
UniProt P31725: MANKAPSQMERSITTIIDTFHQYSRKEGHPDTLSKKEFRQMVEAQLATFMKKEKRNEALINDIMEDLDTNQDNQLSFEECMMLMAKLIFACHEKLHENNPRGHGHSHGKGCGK
UniProt P15946: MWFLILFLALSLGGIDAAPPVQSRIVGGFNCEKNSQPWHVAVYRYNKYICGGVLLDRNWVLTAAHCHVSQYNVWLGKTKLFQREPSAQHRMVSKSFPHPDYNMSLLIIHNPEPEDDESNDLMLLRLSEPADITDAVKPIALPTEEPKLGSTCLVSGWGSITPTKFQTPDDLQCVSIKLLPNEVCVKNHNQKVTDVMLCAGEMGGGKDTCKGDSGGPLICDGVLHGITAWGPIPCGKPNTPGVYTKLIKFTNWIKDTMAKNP
UniProt P19258: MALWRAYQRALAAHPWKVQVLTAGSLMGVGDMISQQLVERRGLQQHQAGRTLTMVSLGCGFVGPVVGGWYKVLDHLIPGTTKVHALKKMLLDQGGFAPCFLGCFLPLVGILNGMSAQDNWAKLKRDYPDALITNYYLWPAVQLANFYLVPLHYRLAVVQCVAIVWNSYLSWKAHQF
UniProt P26516: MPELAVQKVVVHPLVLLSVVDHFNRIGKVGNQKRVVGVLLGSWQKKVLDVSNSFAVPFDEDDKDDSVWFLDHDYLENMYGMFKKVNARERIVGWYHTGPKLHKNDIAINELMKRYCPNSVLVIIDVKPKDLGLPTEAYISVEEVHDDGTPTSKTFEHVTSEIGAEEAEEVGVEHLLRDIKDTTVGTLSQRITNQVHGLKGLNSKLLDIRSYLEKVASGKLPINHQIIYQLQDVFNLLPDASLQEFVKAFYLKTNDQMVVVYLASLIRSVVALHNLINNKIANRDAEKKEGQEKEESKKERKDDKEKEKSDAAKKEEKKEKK
UniProt P19426, whole entry: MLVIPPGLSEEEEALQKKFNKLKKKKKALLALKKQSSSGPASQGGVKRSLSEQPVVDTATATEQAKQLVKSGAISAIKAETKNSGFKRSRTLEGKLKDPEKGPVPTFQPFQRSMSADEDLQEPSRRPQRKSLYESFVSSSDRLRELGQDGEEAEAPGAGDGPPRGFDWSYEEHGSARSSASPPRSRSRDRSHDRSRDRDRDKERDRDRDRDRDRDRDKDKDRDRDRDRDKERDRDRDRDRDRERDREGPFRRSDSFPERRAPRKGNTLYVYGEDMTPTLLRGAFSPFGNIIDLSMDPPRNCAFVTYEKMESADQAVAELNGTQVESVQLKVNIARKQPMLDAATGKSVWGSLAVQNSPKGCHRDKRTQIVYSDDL
UniProt P18468: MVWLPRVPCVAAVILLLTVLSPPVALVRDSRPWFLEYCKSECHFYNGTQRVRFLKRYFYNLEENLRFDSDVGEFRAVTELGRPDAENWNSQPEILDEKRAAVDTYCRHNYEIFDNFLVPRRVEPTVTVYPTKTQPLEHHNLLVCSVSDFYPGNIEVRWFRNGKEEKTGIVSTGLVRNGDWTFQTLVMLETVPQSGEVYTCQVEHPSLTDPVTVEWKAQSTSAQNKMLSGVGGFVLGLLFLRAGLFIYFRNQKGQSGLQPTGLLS
UniProt P23780: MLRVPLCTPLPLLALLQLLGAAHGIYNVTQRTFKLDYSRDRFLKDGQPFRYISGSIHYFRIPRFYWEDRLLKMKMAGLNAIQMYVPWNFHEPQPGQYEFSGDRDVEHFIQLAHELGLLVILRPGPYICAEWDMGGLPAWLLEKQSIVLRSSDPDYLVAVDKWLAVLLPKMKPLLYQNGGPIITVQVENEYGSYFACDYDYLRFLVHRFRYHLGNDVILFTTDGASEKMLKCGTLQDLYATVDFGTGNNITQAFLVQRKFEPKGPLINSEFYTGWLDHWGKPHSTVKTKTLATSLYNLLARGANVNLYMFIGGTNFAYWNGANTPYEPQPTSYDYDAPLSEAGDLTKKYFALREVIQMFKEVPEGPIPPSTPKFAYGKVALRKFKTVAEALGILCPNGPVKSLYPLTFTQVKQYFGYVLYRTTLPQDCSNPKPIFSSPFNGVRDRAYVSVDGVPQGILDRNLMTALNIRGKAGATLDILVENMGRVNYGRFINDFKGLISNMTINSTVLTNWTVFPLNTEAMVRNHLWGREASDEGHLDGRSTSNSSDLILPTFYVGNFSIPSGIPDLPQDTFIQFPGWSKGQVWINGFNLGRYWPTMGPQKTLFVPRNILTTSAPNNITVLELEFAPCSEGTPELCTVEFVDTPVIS
UniProt P28653: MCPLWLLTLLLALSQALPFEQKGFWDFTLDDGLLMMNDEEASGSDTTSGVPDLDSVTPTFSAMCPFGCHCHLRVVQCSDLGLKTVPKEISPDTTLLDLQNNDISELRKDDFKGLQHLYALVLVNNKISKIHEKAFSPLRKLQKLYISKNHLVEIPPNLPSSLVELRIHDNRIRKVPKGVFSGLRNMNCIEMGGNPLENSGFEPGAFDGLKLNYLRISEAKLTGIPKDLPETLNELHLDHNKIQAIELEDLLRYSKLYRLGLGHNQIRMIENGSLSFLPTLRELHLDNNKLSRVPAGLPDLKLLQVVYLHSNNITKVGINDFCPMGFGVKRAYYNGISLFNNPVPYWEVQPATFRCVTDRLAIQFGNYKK

Each target was assayed with CN[C@@H]1C[C@H]2O[C@@](C)([C@@H]1OC)n1c3ccccc3c3c4c(c5c6ccccc6n2c5c31)C(=O)NC4 [staurosporine] (assay: log2 fold change of tryptic peptide abundance, ligand vs vehicle (limited proteolysis) (log2 ratio); higher = more trypsin-susceptible (destabilized)). Conditions: ligand concentration: 20 uM; sample: mouse liver crude lysate; replicate design: treated separately.

Row | Target | log2 fold change
1 | UniProt P16627 (peptide sequence: ITITNDKGR, peptide start residue: 501) | -0.392
2 | UniProt P28028 (peptide sequence: NEVGVLRK, peptide start residue: 485) | 0.468
3 | UniProt P32507 (peptide sequence: YHELPTLEER, peptide start residue: 445) | 0.0561
4 | UniProt P31725 (peptide sequence: SITTIIDTFHQYSR, peptide start residue: 12) | 0.127
5 | UniProt P15946 (peptide sequence: LFQREPSAQHRMVSK, peptide start residue: 80) | 0.136
6 | UniProt P19258 (peptide sequence: ALAAHPWK, peptide start residue: 10) | -0.0479
7 | UniProt P26516 (peptide sequence: TFEHVTSEIGAEEAEEVGVEHLLR, peptide start residue: 154) | -0.279
8 | UniProt P19426 (peptide sequence: MLVIPPGLSEEEEALQKK, peptide start residue: 1) | 0.22
9 | UniProt P18468 (peptide sequence: FDSDVGEFR, peptide start residue: 35) | -0.235
10 | UniProt P23780 (peptide sequence: SLYPLTFTQVK, peptide start residue: 401) | 0.0716
11 | UniProt P28653 (peptide sequence: VPAGLPDLK, peptide start residue: 293) | -0.316

Given field by field: part of the list above.
UniProt P15946 (peptide sequence: LFQREPSAQHRMVSK, peptide start residue: 80)
  log2 fold change: 0.136
UniProt P18468 (peptide sequence: FDSDVGEFR, peptide start residue: 35)
  log2 fold change: -0.235
